Assay results as given in the supplement of paper PMC12819154, “High-throughput peptide-centric local stability assay extends protein–ligand identification to membrane proteins, tissues and bacteria” (Nature Structural & Molecular Biology, 2025).
This is one part of the list. Most entries show no effect beyond the scatter of the controls.

Sequences of proteins named here, by UniProt entry; tags and fusion partners are left off. A change or cut given only in a name is not applied to a line headed by its entry.
UniProt P10515, whole entry: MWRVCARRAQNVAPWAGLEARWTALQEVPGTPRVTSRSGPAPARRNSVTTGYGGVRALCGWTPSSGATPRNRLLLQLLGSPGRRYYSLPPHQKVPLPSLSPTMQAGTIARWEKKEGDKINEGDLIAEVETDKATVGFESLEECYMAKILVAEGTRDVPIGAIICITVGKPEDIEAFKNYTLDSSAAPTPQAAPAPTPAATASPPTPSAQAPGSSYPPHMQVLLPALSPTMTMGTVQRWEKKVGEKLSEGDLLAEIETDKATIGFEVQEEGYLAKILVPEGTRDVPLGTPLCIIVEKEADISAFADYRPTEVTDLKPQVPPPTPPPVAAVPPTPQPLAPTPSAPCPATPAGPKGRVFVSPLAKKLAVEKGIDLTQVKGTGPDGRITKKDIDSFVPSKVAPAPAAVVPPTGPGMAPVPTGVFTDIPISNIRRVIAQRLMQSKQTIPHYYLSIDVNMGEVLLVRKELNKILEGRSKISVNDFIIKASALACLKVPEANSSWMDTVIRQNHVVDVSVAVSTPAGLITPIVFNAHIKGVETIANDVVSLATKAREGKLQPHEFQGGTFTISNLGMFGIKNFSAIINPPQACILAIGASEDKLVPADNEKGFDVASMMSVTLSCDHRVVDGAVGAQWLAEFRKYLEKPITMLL
UniProt P12980: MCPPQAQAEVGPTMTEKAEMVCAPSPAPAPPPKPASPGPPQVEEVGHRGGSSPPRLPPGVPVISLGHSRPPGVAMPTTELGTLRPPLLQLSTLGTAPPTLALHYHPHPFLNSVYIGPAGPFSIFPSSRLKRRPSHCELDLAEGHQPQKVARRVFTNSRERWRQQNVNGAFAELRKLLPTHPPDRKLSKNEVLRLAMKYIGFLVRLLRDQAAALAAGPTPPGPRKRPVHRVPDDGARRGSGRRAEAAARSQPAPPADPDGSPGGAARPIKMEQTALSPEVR
UniProt P0CG12: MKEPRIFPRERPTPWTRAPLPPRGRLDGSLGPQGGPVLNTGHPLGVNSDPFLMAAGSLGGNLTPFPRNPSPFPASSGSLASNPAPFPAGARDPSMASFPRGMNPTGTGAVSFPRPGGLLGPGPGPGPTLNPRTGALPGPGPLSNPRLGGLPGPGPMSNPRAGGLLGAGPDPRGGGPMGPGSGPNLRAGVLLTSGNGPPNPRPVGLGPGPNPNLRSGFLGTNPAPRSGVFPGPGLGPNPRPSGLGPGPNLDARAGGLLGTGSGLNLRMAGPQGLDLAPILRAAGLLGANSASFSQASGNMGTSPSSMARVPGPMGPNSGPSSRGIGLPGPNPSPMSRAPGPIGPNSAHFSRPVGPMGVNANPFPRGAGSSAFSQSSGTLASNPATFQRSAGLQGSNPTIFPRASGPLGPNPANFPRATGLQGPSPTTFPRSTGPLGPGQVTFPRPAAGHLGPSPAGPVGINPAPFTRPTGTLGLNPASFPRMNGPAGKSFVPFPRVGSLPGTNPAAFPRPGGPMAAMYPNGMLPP
UniProt P11387: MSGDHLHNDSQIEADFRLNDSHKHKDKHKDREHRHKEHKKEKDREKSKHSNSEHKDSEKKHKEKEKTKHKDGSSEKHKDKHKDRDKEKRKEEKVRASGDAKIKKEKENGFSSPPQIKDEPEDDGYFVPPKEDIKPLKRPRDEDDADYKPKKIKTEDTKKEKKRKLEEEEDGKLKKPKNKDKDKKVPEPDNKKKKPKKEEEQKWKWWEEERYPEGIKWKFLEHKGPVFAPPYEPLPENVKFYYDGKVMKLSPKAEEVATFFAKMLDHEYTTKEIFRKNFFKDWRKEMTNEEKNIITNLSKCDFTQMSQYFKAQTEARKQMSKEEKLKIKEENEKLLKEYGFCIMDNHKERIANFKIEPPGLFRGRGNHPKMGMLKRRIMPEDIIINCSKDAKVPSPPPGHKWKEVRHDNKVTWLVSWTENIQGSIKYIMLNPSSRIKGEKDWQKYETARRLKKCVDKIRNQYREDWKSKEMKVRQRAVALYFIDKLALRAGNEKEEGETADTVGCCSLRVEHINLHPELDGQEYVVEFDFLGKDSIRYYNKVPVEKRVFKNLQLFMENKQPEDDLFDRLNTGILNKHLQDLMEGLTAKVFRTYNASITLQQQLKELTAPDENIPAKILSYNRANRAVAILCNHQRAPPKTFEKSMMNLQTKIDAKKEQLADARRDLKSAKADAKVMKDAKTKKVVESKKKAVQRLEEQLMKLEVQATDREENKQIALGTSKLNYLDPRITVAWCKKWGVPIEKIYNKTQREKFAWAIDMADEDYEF
UniProt P11831: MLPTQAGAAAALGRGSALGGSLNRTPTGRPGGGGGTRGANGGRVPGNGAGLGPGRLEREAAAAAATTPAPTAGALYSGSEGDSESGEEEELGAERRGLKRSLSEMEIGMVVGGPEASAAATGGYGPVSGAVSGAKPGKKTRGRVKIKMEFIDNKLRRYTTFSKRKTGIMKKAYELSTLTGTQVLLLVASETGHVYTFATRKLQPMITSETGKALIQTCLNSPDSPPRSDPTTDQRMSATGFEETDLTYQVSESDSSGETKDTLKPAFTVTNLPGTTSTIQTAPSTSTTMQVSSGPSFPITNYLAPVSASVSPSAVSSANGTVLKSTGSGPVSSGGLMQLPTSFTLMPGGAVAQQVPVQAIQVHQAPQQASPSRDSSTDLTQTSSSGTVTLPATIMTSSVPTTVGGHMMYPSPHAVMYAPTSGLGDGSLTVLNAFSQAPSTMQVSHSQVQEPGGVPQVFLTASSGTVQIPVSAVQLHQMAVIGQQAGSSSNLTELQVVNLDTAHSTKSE
UniProt O96028: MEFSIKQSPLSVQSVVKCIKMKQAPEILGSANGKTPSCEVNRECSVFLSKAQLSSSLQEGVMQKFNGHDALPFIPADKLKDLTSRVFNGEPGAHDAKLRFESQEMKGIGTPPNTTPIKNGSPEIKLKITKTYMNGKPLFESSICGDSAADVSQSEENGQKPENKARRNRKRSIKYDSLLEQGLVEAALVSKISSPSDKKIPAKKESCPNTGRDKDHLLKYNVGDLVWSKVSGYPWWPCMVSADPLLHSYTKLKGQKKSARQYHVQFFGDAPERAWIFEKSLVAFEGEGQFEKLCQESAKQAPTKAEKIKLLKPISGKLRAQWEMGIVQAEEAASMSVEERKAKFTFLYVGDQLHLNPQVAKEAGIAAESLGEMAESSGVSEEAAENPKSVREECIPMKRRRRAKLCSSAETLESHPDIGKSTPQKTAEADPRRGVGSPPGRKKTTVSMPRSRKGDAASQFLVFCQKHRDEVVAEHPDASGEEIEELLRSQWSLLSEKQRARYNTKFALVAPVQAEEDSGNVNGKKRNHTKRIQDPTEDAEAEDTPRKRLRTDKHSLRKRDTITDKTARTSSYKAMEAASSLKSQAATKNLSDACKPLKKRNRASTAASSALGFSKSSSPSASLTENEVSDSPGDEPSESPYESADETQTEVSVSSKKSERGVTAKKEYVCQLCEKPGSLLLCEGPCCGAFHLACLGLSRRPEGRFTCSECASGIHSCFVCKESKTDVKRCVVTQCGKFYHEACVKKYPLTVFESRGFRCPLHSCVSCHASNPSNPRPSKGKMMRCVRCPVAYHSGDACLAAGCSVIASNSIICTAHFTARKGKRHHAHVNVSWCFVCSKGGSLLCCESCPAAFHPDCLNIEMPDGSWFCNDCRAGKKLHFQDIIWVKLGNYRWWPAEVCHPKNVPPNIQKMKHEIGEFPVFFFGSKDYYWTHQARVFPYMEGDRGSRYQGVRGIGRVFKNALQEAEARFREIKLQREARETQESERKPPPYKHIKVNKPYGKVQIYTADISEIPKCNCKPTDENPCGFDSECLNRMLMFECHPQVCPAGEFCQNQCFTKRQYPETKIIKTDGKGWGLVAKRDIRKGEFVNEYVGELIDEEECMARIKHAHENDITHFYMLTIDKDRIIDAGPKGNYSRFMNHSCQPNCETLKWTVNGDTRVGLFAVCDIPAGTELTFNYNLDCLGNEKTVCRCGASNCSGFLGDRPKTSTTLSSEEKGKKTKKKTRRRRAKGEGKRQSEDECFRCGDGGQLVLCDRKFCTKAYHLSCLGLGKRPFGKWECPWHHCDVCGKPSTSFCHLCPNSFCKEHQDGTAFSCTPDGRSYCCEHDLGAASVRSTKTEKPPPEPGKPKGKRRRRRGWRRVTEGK
UniProt P00403, whole entry: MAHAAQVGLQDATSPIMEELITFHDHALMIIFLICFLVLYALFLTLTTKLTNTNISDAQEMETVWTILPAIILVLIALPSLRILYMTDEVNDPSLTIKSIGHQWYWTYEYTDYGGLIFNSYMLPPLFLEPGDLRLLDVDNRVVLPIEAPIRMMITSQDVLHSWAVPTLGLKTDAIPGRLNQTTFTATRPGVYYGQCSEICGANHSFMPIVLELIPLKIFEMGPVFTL
UniProt P08590, whole entry: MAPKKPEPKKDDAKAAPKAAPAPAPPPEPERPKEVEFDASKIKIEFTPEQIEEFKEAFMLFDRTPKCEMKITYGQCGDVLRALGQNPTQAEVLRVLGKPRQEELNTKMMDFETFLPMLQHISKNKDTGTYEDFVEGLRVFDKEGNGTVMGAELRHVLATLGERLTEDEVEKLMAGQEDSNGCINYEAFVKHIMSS
UniProt P10619: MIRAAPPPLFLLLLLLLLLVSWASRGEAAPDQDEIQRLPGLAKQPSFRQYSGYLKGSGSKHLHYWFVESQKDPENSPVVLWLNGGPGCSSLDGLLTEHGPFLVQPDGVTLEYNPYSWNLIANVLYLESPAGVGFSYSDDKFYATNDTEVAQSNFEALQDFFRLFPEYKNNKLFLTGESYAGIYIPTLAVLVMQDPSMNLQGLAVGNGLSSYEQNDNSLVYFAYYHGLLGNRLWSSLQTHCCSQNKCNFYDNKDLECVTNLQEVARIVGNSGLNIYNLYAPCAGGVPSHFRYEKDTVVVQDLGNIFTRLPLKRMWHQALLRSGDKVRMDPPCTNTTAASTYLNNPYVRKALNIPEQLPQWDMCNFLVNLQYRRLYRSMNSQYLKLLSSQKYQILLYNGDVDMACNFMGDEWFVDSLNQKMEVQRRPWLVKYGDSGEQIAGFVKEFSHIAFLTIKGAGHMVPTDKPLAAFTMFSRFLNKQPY
UniProt P0CI00: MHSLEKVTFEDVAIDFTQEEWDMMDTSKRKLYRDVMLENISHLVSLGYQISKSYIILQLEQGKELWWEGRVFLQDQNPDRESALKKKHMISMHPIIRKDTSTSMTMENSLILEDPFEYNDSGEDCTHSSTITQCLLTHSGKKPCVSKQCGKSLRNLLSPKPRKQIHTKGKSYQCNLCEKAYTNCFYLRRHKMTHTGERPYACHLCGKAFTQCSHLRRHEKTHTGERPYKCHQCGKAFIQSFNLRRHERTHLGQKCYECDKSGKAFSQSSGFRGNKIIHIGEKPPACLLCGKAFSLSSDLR
UniProt P10244: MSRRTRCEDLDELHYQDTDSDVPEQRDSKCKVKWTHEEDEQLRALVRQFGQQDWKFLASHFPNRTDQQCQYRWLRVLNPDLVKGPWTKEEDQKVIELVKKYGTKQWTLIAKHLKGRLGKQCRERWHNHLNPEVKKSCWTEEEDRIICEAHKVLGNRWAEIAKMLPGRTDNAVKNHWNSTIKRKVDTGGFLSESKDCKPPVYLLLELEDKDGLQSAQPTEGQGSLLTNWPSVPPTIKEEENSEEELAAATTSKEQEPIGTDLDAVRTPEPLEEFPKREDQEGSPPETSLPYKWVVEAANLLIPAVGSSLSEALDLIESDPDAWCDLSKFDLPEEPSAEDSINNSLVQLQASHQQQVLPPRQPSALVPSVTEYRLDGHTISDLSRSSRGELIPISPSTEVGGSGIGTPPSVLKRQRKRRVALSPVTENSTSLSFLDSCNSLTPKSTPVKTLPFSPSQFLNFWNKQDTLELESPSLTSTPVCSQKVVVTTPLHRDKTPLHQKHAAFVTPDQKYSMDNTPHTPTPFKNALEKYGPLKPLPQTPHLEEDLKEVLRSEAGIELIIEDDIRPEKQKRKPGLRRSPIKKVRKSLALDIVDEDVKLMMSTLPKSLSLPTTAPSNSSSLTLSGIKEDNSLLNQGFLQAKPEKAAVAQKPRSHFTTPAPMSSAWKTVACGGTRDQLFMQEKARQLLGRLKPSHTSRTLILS

What follows are targets tested with CN[C@@H]1C[C@H]2O[C@@](C)([C@@H]1OC)n1c3ccccc3c3c4c(c5c6ccccc6n2c5c31)C(=O)NC4 [staurosporine] (assay: log2 fold change of tryptic peptide abundance, ligand vs vehicle (limited proteolysis) (log2 ratio); higher = more trypsin-susceptible (destabilized)). Details: ligand concentration: 20 uM; sample: K562 cleared lysate; digestion: 4 min, 22 C (HT-PELSA RT4min, Orbitrap Astral).

Target | log2 fold change
DLAT (peptide sequence: VVDGAVGAQWLAEFRK, peptide start residue: 622) (UniProt P10515) | 0.379
LYL1 (peptide sequence: RPSHCELDLAEGHQPQK, peptide start residue: 132) (UniProt P12980) | -0.157
UniProt P0CG12 (peptide sequence: GGGPMGPGSGPNLR, peptide start residue: 173) | 0.21
TOP1 (peptide sequence: YYNKVPVEK, peptide start residue: 537) (UniProt P11387) | 1.03
SRF (peptide sequence: VPGNGAGLGPGRLER, peptide start residue: 44) (UniProt P11831) | 0.45
UniProt O96028 (peptide sequence: HAHENDITHFYMLTIDKDR, peptide start residue: 1108) | 0.841
UniProt P00403 (peptide sequence: VVLPIEAPIR, peptide start residue: 142) | 0.105
MYL3 (peptide sequence: ITYGQCGDVLR, peptide start residue: 73) (UniProt P08590) | -0.0177
CTSA (peptide sequence: EFSHIAFLTIK, peptide start residue: 443) (UniProt P10619) | 1.1
UniProt P0CI00 (peptide sequence: THTGERPYK, peptide start residue: 310) | -0.121
MYBL2 (peptide sequence: YSMDNTPHTPTPFK, peptide start residue: 510) (UniProt P10244) | 0.301
